This is one part of the list.
compound: O=C(CCCCCCC(=O)Nc1ccccc1)NO [vorinostat]; assay: log2 fold change, soluble protein after heating vs DMSO (PISA); higher = thermal stabilisation; K562 cells, 10 uM, 30 min; active = over 0.2 and 3.5 SD of the protein, either way, in both replicates (recomputed)
Procedure, shortened: (§1)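 Quantification of soluble protein used TMTpro 16plex LC-MS/MS, with channel sums equalised. Samples were the supernatant after 21,000xg for 90 min of pooled aliquots from K562 cells (2×10^6 cells/mL) treated with 10 μM compound for 30 min, heated for 3 min over 48°C-58°C, and extracted in PBS with 0.5% NP-40 at 4°C. Values, from duplicates, describe thermal stability against control samples on a log2 fold-change scale.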

Sequences of proteins named here, by UniProt entry; tags and fusion partners are left off. A change or cut given only in a name is not applied to a line headed by its entry.
UniProt Q9H1U4: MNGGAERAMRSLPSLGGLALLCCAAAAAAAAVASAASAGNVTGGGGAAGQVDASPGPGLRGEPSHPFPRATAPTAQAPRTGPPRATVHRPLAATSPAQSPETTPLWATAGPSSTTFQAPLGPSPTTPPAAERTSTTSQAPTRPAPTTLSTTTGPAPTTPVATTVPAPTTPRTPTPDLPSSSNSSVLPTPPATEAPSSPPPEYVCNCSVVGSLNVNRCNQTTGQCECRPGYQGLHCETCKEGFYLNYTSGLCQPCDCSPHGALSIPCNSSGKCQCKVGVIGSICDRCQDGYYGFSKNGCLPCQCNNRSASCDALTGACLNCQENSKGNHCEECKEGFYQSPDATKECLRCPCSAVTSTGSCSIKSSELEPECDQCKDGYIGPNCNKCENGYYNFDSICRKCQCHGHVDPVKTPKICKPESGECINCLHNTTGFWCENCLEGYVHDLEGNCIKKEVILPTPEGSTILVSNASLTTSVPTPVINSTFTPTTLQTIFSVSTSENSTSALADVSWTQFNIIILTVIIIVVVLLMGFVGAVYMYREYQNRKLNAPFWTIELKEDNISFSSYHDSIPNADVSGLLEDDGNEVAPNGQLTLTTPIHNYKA
UniProt Q6UX53: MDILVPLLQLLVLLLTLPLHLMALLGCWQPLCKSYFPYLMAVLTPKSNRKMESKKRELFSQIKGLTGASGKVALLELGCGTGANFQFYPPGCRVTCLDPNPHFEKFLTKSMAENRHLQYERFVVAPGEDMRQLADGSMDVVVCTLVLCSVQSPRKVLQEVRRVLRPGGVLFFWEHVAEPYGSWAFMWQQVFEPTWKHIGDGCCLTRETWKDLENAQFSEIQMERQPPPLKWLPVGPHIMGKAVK
UniProt Q6NUT3: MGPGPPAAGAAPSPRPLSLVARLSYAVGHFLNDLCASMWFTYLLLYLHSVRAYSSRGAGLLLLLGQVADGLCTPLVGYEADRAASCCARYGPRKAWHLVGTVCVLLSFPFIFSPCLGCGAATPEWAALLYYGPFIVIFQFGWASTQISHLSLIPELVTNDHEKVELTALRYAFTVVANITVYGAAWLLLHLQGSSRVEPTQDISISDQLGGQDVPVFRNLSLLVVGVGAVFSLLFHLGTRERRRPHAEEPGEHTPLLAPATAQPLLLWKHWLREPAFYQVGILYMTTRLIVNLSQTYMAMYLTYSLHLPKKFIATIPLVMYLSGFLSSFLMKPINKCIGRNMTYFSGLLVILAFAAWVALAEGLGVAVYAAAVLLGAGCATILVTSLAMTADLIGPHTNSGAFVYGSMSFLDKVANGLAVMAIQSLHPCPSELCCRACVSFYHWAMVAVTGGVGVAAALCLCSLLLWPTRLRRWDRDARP
UniProt O75586: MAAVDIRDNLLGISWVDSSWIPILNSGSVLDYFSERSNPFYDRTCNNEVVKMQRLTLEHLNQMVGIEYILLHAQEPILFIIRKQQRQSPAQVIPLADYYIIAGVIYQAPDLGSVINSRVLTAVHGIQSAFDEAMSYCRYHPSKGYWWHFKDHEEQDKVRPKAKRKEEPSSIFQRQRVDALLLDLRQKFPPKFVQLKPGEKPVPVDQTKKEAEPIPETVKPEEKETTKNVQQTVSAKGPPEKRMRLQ
UniProt Q9BUT9: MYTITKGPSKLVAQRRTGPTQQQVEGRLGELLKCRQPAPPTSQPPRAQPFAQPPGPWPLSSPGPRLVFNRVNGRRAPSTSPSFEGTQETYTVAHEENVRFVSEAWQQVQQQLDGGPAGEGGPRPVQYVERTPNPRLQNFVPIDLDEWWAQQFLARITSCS
UniProt Q8NHS3: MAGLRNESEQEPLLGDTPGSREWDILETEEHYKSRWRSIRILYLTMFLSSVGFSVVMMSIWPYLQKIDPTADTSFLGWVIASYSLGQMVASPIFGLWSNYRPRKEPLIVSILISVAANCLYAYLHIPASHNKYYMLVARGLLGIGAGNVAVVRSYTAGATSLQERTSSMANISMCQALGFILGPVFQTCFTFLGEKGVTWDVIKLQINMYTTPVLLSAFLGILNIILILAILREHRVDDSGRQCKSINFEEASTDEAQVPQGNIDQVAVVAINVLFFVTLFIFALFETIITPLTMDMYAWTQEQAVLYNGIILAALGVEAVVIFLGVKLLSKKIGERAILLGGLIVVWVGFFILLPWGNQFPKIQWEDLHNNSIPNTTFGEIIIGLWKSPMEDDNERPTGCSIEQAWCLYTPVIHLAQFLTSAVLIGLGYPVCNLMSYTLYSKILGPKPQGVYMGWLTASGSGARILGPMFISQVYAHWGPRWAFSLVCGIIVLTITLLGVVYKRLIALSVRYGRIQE
UniProt Q9NWA0: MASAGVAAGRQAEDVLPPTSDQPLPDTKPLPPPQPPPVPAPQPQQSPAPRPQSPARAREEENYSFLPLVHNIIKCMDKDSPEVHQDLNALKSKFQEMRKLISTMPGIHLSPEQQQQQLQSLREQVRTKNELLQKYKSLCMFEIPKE
UniProt A0JLT2: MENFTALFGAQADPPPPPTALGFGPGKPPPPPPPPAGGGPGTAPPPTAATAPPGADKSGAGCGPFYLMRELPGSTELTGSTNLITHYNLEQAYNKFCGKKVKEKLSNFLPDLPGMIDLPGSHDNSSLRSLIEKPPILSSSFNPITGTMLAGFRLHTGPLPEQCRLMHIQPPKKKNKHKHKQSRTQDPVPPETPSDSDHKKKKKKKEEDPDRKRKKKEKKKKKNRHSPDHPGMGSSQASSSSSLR
UniProt Q02078: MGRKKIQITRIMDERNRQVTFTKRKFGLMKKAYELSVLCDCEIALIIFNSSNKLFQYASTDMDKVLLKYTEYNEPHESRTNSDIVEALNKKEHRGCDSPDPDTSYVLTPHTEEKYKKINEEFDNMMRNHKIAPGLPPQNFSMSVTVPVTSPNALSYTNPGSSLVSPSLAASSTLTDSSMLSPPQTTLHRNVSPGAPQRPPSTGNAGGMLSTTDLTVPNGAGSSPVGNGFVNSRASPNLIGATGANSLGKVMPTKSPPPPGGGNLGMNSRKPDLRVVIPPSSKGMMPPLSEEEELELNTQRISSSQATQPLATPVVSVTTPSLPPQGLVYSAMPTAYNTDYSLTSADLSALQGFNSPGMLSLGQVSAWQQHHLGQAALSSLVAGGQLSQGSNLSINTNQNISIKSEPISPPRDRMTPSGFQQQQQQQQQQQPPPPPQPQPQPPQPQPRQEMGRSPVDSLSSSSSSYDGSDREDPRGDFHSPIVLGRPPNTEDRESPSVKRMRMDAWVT
UniProt Q9Y6X3: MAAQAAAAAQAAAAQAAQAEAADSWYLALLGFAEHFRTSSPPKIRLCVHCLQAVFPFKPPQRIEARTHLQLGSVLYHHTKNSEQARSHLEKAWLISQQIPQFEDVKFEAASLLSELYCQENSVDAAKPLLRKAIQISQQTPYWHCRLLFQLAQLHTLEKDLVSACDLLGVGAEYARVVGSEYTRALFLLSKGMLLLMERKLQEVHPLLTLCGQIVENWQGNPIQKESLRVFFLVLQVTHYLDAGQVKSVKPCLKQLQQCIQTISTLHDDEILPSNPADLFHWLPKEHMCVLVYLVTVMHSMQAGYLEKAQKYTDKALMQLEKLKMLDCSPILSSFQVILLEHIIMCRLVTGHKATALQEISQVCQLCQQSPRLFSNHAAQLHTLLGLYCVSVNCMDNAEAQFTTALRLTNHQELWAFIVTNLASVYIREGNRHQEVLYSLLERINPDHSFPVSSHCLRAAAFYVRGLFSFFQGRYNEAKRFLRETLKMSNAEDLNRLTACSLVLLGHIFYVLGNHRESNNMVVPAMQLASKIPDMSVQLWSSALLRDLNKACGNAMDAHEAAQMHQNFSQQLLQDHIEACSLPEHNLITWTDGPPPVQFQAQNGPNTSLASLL
UniProt O43462: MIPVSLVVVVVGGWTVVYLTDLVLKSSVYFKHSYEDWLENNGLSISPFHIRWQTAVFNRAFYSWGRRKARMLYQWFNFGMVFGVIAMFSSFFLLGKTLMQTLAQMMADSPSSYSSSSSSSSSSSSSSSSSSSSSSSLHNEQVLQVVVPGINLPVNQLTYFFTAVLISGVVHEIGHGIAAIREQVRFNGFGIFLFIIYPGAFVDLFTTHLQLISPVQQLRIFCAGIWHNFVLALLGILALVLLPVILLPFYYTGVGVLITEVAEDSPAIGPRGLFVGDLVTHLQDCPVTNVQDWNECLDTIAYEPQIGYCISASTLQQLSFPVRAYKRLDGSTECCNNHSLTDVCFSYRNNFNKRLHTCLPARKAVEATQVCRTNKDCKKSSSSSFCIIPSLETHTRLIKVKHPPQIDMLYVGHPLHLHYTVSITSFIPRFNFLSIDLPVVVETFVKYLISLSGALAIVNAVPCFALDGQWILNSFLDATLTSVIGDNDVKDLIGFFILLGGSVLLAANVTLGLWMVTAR
UniProt Q5VZF2: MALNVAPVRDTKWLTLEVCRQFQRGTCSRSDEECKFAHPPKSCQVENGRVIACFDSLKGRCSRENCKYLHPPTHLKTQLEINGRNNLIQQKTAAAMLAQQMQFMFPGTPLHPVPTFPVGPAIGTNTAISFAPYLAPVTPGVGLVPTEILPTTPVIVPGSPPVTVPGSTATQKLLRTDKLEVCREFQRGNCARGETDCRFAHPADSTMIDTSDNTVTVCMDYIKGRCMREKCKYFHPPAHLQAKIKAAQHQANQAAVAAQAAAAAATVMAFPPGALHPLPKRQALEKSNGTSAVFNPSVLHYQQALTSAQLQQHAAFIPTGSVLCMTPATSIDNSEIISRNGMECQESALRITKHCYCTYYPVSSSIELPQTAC
UniProt A4D2B0: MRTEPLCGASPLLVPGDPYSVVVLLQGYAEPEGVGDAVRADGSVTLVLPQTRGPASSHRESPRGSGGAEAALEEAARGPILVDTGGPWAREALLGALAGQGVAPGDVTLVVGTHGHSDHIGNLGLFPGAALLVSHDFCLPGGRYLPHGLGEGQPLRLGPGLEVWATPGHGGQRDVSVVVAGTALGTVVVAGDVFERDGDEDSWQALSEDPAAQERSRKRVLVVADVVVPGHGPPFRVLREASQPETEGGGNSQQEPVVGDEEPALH
UniProt Q13503: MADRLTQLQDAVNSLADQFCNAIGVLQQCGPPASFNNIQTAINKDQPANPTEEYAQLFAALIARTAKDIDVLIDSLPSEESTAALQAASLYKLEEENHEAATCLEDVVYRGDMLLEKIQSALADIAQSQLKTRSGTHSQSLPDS
UniProt Q9H1A3: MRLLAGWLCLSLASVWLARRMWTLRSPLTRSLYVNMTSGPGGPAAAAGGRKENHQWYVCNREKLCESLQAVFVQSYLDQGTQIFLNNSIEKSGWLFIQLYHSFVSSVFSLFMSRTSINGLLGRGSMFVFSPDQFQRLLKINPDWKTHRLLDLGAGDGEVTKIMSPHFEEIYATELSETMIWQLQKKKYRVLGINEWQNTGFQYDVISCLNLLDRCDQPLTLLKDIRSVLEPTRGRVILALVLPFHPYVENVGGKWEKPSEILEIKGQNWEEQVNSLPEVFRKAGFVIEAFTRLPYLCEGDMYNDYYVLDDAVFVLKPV
UniProt Q06413, whole entry, looked up: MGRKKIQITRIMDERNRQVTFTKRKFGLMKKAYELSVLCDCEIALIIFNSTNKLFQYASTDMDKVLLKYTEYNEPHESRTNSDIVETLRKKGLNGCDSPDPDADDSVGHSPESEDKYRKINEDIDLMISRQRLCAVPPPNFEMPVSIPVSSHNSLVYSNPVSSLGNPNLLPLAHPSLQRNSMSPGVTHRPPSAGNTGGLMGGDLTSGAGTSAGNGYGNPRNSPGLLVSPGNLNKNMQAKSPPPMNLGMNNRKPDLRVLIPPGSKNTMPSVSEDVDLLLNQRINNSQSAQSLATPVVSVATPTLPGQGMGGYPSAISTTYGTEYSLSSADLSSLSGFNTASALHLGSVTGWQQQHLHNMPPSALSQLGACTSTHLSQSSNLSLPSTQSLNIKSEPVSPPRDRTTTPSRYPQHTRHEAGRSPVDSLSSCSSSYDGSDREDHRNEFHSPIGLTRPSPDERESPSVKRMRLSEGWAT
UniProt Q9NR56: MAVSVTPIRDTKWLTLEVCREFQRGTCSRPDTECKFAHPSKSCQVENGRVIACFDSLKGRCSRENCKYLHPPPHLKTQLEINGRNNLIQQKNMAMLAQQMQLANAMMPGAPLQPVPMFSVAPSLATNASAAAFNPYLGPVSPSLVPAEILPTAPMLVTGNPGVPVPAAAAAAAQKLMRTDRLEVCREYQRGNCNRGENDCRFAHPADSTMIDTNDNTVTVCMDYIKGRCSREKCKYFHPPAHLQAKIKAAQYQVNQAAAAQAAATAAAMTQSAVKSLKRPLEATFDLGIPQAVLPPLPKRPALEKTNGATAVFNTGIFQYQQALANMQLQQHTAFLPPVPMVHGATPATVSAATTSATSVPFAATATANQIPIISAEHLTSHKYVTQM
UniProt Q9Y3C7: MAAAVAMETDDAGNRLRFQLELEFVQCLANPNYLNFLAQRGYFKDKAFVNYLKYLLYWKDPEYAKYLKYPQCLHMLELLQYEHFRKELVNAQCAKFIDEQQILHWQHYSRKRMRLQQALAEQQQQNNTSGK

log2 fold change, inactive:
MEGF9 (UniProt Q9H1U4) -0.109, MEIS2 (UniProt O14770) 0.019, METTL7B (UniProt Q6UX53) -0.205, MFSD12 isoform 3 (UniProt Q6NUT3) 0.11, MED6 (UniProt O75586) 0.129, MCOLN3 (UniProt Q8TDD5) 0, MCRIP2 (UniProt Q9BUT9) 0.009, MGRN1 isoform 2 (UniProt O60291) -0.024, MFHAS1 (UniProt Q9Y4C4) 0.004, MFSD8 (UniProt Q8NHS3) -0.008, MED9 (UniProt Q9NWA0) -0.235, MCOLN1 (UniProt Q9GZU1) -0.104, MED19 (UniProt A0JLT2) 0.394, MASP1 isoform 2 (UniProt P48740) 0.09, MEF2A isoform 2 (UniProt Q02078) 0.084, MAU2 (UniProt Q9Y6X3) -0.012, MCM10 (UniProt Q7L590) 0.021, MBTPS2 (UniProt O43462) -0.035, MBNL2 (UniProt Q5VZF2) 0.055, MBLAC1 (UniProt A4D2B0) -0.021, MELK (UniProt Q14680) 0.062, MED21 (UniProt Q13503) -0.2, METTL9 (UniProt Q9H1A3) -0.032

compound: O=C(CCCCCCNC(=O)c1cnc(N(c2ccccc2)c2ccccc2Cl)nc1)NO [citarinostat]; assay: as above
Procedure, shortened: as §1

log2 fold change, inactive:
MEF2C isoform 2 (UniProt Q06413) 0.031, MEF2A (UniProt Q02078) 0.02, MFSD12 isoform 3 (UniProt Q6NUT3) 0.1, MED6 (UniProt O75586) -0.001, MCOLN3 (UniProt Q8TDD5) 0.095, MCRIP2 (UniProt Q9BUT9) 0.067, METTL26 (UniProt Q96S19) -0.01, MFSD8 (UniProt Q8NHS3) -0.003, MED9 (UniProt Q9NWA0) -0.169, MCOLN1 (UniProt Q9GZU1) -0.054, MED19 (UniProt A0JLT2) -0.04, MEGF8 (UniProt Q7Z7M0) 0.034, MBNL1 isoform 5 (UniProt Q9NR56) 0.15, MCM10 (UniProt Q7L590) 0.143, MED31 (UniProt Q9Y3C7) 0.049, MBLAC1 (UniProt A4D2B0) 0.01, MELK (UniProt Q14680) -0.001, MED21 (UniProt Q13503) -0.014

Reference: the supplement of paper PMC10849652
